The text below walks through data of publication doi:10.1101/2020.11.06.371260.

Numbering of substitutions follows the chain as printed. No constants are given. Whether binding was seen depends on the method and setting. For some of these results: Binding can be weak; no strength is given. For some of these results: Where a sequence is shown, tags or fusion partners need not be part of it. For some of these results: Binding seen in cells or lysates may run through a third protein.

Experiment [1] concerns the target T1, Arabidopsis EXO84B, BiFC fusion (Arabidopsis thaliana) (UniProt Q9LTB0).
T1 sequence: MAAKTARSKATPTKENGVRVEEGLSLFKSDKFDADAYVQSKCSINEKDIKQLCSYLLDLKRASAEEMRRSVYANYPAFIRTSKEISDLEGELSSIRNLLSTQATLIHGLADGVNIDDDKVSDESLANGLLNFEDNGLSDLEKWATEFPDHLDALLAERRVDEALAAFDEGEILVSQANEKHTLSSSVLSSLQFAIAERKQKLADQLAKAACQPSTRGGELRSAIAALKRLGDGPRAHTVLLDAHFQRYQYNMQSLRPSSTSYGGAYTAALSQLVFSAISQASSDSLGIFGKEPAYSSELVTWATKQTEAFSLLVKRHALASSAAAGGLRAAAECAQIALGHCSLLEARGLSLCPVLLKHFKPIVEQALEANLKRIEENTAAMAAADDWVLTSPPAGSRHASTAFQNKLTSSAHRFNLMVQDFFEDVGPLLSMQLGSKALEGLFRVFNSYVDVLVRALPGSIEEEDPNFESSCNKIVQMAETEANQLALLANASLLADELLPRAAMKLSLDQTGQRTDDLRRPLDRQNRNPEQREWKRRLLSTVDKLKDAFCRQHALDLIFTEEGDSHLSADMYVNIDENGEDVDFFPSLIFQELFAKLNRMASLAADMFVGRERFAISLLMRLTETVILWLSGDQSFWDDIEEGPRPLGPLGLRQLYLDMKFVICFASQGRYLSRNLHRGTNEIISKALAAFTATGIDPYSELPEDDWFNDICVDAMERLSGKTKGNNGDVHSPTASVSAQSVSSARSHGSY
Kind of experiment: split reporter.

In experiment [2] the target is T2, AtEXO70B1 fused C-terminally with nVENUS (Arabidopsis thaliana) (UniProt Q9FGH9).
T2 sequence: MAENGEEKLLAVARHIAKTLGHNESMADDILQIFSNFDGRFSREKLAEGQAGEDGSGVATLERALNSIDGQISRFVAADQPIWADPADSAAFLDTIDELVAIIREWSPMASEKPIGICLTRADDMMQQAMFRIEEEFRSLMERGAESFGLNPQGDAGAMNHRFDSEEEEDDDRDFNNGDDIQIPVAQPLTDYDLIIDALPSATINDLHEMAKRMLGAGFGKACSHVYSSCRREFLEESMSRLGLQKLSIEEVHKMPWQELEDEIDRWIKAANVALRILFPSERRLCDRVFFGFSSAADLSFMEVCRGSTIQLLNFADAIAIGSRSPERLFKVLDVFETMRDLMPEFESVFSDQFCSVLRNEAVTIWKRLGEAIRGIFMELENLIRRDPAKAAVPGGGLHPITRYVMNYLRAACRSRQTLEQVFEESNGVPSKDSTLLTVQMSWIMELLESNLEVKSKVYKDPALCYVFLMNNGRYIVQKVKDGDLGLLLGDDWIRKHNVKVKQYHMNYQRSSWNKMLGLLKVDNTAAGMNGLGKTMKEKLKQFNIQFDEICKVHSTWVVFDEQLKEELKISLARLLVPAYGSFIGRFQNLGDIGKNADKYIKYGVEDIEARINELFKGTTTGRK
Kind of experiment: split reporter.

Experiment [3] deals with T3, AtEXO70A1 splice form 1, yeast two-hybrid fusion (Arabidopsis thaliana) (UniProt Q9LZD3).
T3 sequence: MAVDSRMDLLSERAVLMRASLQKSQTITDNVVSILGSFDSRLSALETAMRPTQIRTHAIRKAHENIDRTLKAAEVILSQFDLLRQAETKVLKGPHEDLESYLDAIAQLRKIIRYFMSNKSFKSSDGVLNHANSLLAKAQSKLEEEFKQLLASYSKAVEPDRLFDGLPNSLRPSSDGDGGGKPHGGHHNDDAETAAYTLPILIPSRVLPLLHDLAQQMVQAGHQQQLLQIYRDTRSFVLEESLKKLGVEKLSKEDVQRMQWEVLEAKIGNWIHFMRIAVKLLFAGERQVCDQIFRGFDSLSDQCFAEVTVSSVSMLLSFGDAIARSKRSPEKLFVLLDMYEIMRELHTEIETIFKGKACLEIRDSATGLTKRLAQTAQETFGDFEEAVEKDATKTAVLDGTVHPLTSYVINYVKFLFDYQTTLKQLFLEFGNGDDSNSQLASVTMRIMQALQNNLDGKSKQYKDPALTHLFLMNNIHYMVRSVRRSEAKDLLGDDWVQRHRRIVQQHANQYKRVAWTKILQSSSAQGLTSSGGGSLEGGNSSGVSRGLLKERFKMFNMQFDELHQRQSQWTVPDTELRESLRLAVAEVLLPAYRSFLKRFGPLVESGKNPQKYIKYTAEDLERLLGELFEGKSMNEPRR
Kind of experiment: two-hybrid.

Experiment [4] has as its target T4, AtEXO70B1-CD truncation (389 to 625 amino acids), yeast two-hybrid fusion (Arabidopsis thaliana) (UniProt Q9FGH9).
T4 sequence: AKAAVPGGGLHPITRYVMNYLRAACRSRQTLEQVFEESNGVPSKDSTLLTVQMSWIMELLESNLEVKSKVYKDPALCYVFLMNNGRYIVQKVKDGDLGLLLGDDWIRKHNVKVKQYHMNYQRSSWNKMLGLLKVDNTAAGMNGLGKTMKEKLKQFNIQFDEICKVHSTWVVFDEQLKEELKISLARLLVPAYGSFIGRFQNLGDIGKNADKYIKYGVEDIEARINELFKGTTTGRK
Kind of experiment: two-hybrid.

The target of experiment [5] is T5, AtEXO70B1-BC truncation (319 to 511 amino acids), yeast two-hybrid fusion (Arabidopsis thaliana) (UniProt Q9FGH9).
T5 sequence: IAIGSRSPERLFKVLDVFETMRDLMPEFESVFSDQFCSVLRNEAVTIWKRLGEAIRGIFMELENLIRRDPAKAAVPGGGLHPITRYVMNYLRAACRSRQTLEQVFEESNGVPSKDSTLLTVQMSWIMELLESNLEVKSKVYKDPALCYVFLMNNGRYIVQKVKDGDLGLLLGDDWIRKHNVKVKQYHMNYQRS
As to the kind of experiment: two-hybrid.

Experiment [6] addresses T6, Arabidopsis SEC15B, yeast two-hybrid fusion (Arabidopsis thaliana) (UniProt F4JHH5).
T6 sequence: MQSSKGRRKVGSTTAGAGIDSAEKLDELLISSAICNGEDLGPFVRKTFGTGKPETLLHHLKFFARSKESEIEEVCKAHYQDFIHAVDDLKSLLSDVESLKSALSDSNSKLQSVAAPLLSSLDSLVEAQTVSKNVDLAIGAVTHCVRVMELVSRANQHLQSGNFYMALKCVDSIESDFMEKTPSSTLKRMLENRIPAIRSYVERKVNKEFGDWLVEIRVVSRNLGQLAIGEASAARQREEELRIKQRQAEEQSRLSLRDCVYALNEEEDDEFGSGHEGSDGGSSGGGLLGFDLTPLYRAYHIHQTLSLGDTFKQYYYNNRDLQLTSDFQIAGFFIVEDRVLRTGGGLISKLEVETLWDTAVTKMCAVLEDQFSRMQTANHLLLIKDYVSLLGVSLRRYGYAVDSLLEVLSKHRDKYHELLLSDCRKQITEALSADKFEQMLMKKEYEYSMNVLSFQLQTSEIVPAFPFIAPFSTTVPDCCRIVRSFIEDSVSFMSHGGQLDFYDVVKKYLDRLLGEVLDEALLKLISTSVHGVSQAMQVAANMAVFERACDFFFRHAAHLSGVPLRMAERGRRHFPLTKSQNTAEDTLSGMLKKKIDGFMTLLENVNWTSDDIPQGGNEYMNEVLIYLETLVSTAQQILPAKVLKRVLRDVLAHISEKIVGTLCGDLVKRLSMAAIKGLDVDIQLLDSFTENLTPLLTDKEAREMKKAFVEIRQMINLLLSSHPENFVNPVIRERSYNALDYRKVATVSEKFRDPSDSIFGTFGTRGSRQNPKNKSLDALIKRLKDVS
Kind of experiment: two-hybrid.

The target of experiment [7] is T7, AtEXO70B1-AB truncation (1 to 388 amino acids), yeast two-hybrid fusion (Arabidopsis thaliana) (UniProt Q9FGH9).
T7 sequence: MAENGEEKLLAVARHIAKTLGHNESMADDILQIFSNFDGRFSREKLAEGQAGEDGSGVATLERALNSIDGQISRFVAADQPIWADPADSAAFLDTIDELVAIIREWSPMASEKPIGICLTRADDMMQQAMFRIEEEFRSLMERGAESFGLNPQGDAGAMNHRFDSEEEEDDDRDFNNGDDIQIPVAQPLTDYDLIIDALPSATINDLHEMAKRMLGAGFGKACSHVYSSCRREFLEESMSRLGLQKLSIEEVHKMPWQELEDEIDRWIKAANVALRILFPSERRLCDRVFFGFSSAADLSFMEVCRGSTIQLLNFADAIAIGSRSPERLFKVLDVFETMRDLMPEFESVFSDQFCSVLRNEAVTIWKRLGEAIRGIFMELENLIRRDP
Kind of experiment: two-hybrid.

Experiment [8] addresses T8, Arabidopsis EXO84B, yeast two-hybrid fusion (Arabidopsis thaliana) (UniProt Q9LTB0).
T8 sequence: T1 sequence
Kind of experiment: two-hybrid.

Experiment [9] has as its target T9, AtEXO70B1, yeast two-hybrid fusion (Arabidopsis thaliana) (UniProt Q9FGH9).
T9 sequence: T2 sequence
Kind of experiment: two-hybrid.

Experiment [10] has as its target T10, AtEXO70B2, yeast two-hybrid fusion (Arabidopsis thaliana) (UniProt Q9LMJ4).
T10 sequence: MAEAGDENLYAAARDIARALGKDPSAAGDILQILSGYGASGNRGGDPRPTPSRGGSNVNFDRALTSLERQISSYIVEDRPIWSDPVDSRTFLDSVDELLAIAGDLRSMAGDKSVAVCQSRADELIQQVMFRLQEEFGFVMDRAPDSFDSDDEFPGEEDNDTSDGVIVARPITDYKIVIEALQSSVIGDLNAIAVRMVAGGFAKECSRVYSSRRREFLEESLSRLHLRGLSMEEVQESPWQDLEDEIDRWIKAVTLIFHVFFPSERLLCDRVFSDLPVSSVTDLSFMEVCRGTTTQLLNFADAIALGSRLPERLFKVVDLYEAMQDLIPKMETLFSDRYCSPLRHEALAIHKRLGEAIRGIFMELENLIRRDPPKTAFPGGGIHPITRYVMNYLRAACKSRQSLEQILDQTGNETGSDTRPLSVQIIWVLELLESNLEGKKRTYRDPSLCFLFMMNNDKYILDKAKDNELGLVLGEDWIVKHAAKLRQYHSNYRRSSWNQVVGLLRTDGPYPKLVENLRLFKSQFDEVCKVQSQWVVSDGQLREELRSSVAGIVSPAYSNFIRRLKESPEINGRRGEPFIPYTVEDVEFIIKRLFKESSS
As to the kind of experiment: two-hybrid.

In experiment [11] the target is T11, AtEXO70B1 E347K, yeast two-hybrid fusion (Arabidopsis thaliana) (UniProt Q9FGH9).
T11 sequence: T2 sequence with E347K
Kind of experiment: two-hybrid.

The target of experiment [12] is T12, EXO70B1 full length, recombinant (Arabidopsis thaliana) (UniProt Q9FGH9).
T12 sequence: T2 sequence
Kind of experiment: SEC.

Consider XccXopP fused C-terminally with cCFP, for which the binding entry in experiment [1] and in [2] was “binds” throughout.
“XopP from Xanthomonas campestris pv. campestris, yeast two-hybrid fusion”: the binding result in experiment [3] is given as “no binding”; in experiment [4], “no binding”; in experiment [5] it was “no binding”; in experiment [6], “no binding”; in [7], “binds”; in experiment [8], “binds”. Also, the binding result in experiment [9], in experiment [10] and in experiment [11] was “binds” in each case.
With “XopP-100 (XopP lacking the first 100 N-terminal residues), recombinant (domain or fragment)”, the binding result in experiment [12] is on record as “binds”.
With “AvrRps4 effector from Pseudomonas syringae pv. pisi fused C-terminally with cCFP”, the binding entry in experiment [2] was “no binding”.
“XccXopP N-terminal fragment (1 to 420 amino acids), yeast two-hybrid fusion (domain or fragment)”: the binding result in experiment [7] and in [8] was “binds” in each case.
Take “Acidovorax citrulli XopP homolog, yeast two-hybrid fusion”: the binding result in [9] is “no binding”.
